# The other results are listed elsewhere or left out.
# Amino acid sequences for entries named in this document (tags omitted).
# UniProt P11940, whole entry: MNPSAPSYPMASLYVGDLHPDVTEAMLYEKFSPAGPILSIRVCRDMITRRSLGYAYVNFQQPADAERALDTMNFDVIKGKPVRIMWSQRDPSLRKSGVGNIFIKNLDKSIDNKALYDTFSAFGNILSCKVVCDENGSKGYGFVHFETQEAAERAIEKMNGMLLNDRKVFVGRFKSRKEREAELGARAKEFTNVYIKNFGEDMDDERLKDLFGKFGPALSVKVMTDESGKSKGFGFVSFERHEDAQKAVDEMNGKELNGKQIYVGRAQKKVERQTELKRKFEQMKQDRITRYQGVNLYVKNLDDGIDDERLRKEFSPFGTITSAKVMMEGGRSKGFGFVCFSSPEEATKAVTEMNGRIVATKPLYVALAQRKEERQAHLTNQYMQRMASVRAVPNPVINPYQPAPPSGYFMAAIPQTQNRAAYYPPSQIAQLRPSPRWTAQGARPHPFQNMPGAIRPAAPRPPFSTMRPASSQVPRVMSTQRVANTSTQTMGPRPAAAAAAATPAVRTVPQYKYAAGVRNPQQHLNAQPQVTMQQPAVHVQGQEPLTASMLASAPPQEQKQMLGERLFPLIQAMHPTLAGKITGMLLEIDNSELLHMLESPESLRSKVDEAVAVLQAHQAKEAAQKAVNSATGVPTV
# Target: Polyadenylate-binding protein 1 (Homo sapiens) (UniProt P11940)
# Assay: blockers of PABP interaction with poly(A) – biochemical, fluorescence polarization, uHTS, primary screen (AID 2014)
# Details: PABP-poly(A) RNA binding, confirmation repeats, at 20 µM, stronger effect = higher value
row,SMILES,inhibition
1,O=[N+]([O-])c1cc([N+](=O)[O-])c(-c2ccn[nH]2)s1,7.3%
2,CCOC(=O)Nc1ccc([As](=O)(O)O)c(O)c1,77.9%
3,CS(=O)(=O)c1cc([N+](=O)[O-])c2no[n+]([O-])c2c1,67.2%
4,CC(C)(C)C(=O)NC(Sc1ccccc1)C(Cl)(Cl)Cl (stereo not drawn),9.7%
5,COc1ccc(OP(C)(=O)Nc2ccc(SC(F)(F)F)cc2)cc1 (stereo not drawn),1.2%
6,CC(=O)NC(SC(=S)N(C)C)C(Cl)(Cl)Cl (stereo not drawn),76.6%
7,O=[N+]([O-])c1ccc(O)c(/C=N/Nc2ccc([N+](=O)[O-])cc2[N+](=O)[O-])c1,12.4%
8,O=[N+]([O-])c1cc([N+](=O)[O-])c(CCN2CCOCC2)c([N+](=O)[O-])c1,67.5%

# From PubChem BioAssay AID2014 (Sanford-Burnham Center for Chemical Genomics, 2009)
